Values quoted from earlier work as cited in US10881644B2, “Treatment of asthma and chronic obstructive pulmonary disease with anti-proliferate and anti-inflammatory drugs” (Lutonix, Inc., priority 2006, dated 2021).
Some results were stated once for a whole list of compounds, not compound by compound.

Conditions: low-solubility amino acid; 4% = 40 mg/ml; cited from earlier work

| Structure (SMILES) | solubility in unbuffered water |
| --- | --- |
| CC(C)C[C@H](N)C(=O)O [leucine] | less than 4% |
| N[C@@H](Cc1ccccc1)C(=O)O [phenylalanine] | less than 4% |
| N[C@@H](Cc1c[nH]c2ccccc12)C(=O)O [tryptophan] | less than 4% |
